Results reported in patent publication US20190127473A1 (Dana-Farber, published 2019).
Results are given in words; binding and its absence hold for the method and conditions named. Some binding calls cover weakened binding; strength is not graded here. Blank lines part the entries; values can stand above or below the binder they belong to.

Sequences of proteins named here, by UniProt entry; tags and fusion partners are left off. A change or cut given only in a name is not applied to a line headed by its entry.
UniProt P09382: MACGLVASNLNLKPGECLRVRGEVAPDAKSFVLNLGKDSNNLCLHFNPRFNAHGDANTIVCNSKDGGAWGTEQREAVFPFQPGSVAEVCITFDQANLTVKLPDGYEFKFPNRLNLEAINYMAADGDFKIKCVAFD

Tests used:
[1] = target: GST-F7 (GST-tagged human Gal1 construct) (human) (UniProt P09382); experiment: epitope mapping with GST-tagged human Gal1 fragments
[2] = target: HIS-F7 (6x HIS-tagged human Gal1 construct) (human) (UniProt P09382); experiment: Western blot on HIS-tagged human Gal1 constructs

binding [1]: binds
B1: 8B5 anti-Gal1 monoclonal antibody (antibody, V domains shown)
VH: EVQLQQSVAEFVRPGASVRLSCTASGFNIKNTYIHWVRQRPEQGLEWIGKIDPANGNTKYVPEFQGKATMTADTSSNTVYLHLSSLTSEDTAIYYCVDGYYGWYFAVWGTGTTVTVSS
VL: QAVVTQESALTTSPGETVTLTCRSSTGAVTTSNYANWVQEKPDHLFTGLIGATNNRAPGVPARFSGSLIGDKAVLTITGAQTEDEAIYFCALWYRNHFIFGSGTKVTVL

binding [2]: binds | binding [1]: binds
B2: 8F4 anti-Gal1 monoclonal antibody (antibody, V domains shown)
VH: B1 VH
VL: B1 VL
notes: Hybridoma monoclonal antibody; The light chain is lambda; Hybridoma 8F4.F8.G7 is deposited as ATCC PTA-10535; also called 8F4 mAb; 8F4.F8.G7

binding [1]: binds
B3: 8G3 anti-Gal1 monoclonal antibody (antibody, V domains shown)
VH: B1 VH
VL: B1 VL
